Drawing on PubChem BioAssay AID493014 (National Center for Advancing Translational Sciences (NCATS), 2011), this text covers AC50 for 42 compounds.

Structures are written as SMILES. The list shows a part of the results. Further columns of the screen follow, without active or inactive calls. Compounds called inactive in the main read-out are mostly missing here. Words in brackets tell the shape of the fitted curve; partial curves, single points and poor fits give uncertain potencies.

The experiment in a line: qHTS Assay to Find Inhibitors of Chronic Active B-Cell Receptor Signaling. The note with it: ABC-DLBCL IkBa-CBG/CBR reporter, luminescence ratio (green luciferase fused to IkBa over red control in TMD8 lymphoma cells), 4 h. Put shortly: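 TMD8 ABC-DLBCL cells carrying doxycycline-inducible green luciferase fused to IkappaBalpha plus unfused red luciferase were exposed to compounds (up to 46 uM) for 4 hrs at 37C. Activity came from the overlap-corrected green/red luminescence ratio.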

Setting [1] is: measured here: CBR red luminescence, cell number.
[2] abbreviates: measured here: IkBa-CBG green luminescence.

For `CCOC(=O)C1CCCN(C(=O)C2c3ccccc3Oc3ccccc32)C1` (stereo not drawn), the AC50 under setting [1] was 29.1 µM [falling, single point].

Consider `CCOc1ccc(CCNC(=O)Cn2c(-c3nonc3N)nc3ccccc32)cc1OCC`, for which, under setting [1], the AC50 is 29.1 µM [falling, single point].

Take `CCC[N+]1(CC#CC2(O)CCCCC2)CCOCC1`: under setting [1], the AC50 was 35.5 µM [falling, single point].

As to `CC(C)c1ccc(S(=O)(=O)/N=C2/C=C(Sc3ncn[nH]3)C(=O)c3ccccc32)cc1`, the half-maximal activity concentration (AC50) was 0.82 µM [falling, full curve] under setting [1] and 2.59 µM [rising, full curve] under setting [2].

Take `Cc1ccc(C)c(Nc2c([N+](=O)[O-])ccc3nonc23)c1`: the concentration at half-maximal activity (AC50) under setting [1] was 0.501 µM [rising, full curve, poor fit].

Regarding `Nc1c(C(=O)c2ccc(Br)s2)oc2ccccc12`, the AC50 under setting [1] is 23.1 µM [falling, single point].

`O=C(c1ccco1)N1CCN(C(=O)C2CCCO2)CC1` (stereo not drawn): under setting [1], the concentration at half-maximal activity (AC50) was 0.00411 µM [rising, full curve, poor fit].

In the case of `CC(C)CCNC(=O)C(=O)Nc1ccc2c(c1)N(S(=O)(=O)c1cccs1)CCC2`, the concentration at half-maximal activity (AC50) under setting [1] was 20.6 µM [falling, partial curve].

Regarding `Cc1nc(NCCc2ccc(O)cc2)c2nnn(Cc3ccccc3)c2n1`, the AC50 under setting [1] is 22.4 µM [falling, single point].

For `O=C(O)c1cccc(OS(=O)(=O)c2cc(Br)ccc2Br)c1`, the AC50 under setting [1] was 18.4 µM [rising, single point].

Turning to `Cc1nc(NC(=S)NC(=O)c2ccco2)sc1C(=O)N(C)C`, under setting [1], the half-maximal activity concentration (AC50) was 10 µM [falling, partial curve].

Regarding `C=CCSc1nc2sc(C)c(C)c2c(=O)n1CC=C`, under setting [1], the AC50 was 7.31 µM [rising, partial curve].

Take `COc1cccc(C(=O)Nc2ccc3c(C)cc(=O)oc3c2)c1`: under setting [1], the AC50 was 2.51 µM [falling, full curve].

Take `COc1cccc(NC(=O)Nc2ccc3nc(C)c(C)nc3c2)c1`: the concentration at half-maximal activity (AC50) under setting [1] is 1.12 µM [falling, full curve, poor fit].

Consider `CCOC(=O)c1cc(-c2ccccc2)n(CCCC(=O)Nc2cccc(C)c2C)c1C`, for which the concentration at half-maximal activity (AC50) under setting [1] is 10 µM [rising, partial curve, poor fit].

On to `O=C(CN1CCN(C(=O)c2ccco2)CC1)Nc1ccc(F)cc1F`, for which the AC50 under setting [1] was 4.47 µM [falling, partial curve].

Consider `COc1ccc(C2=NN(c3ccccc3)C(c3cccs3)C2)cc1` (stereo not drawn), for which, under setting [1], the AC50 is 20 µM [rising, partial curve, poor fit].

Turning to `O=C(CCN1C(=O)c2ccccc2S1(=O)=O)N1CCN(c2ccccc2)CC1`, under setting [1], the half-maximal activity concentration (AC50) was 35.5 µM [rising, single point].

On to `CCN(CC(=O)Nc1c(F)cccc1F)C(=O)/C=C/c1ccc(C)o1`, for which the AC50 under setting [1] was 18.4 µM [falling, partial curve, poor fit].

For the compound `Cc1cc(C)cc(NC(=S)NN)c1`, under setting [1], the concentration at half-maximal activity (AC50) is 1.12 µM [rising, partial curve].

Consider `COc1ccc(CCNC(=O)c2n[nH]c3ccccc23)cc1`, for which the half-maximal activity concentration (AC50) under setting [1] is 20 µM [falling, partial curve, poor fit].

As to `Cc1ccc(NC(=O)c2c(C)noc2C)cc1S(=O)(=O)N1CCOCC1`, the AC50 under setting [1] is 11.6 µM [rising, partial curve, poor fit].

As for `Cc1cccc(Nc2nnc(SCC3CCCCO3)s2)c1` (stereo not drawn), the AC50 under setting [1] was 29.1 µM [falling, single point].

On to `COc1cccc(-c2ccc(NC(=O)C3CCCN(Cc4cnc(C)s4)C3)cc2)c1` (stereo not drawn), for which the AC50 under setting [1] is 7.08 µM [falling, partial curve, poor fit].

Turning to `COc1cc(-c2nnc3sc(Cc4ccccc4)nn23)cc(OC)c1OC`, the concentration at half-maximal activity (AC50) under setting [1] was 12.6 µM [falling, partial curve, poor fit].

For `O=C(Nc1cc(C(F)(F)F)ccc1N1CCOCC1)c1n[nH]c(=O)c2ccccc12`, the AC50 under setting [1] was 2.51 µM [rising, partial curve, poor fit].

`CCn1c(SCC(=O)C(C)(C)C)nnc1-c1cccnc1`: under setting [1], the half-maximal activity concentration (AC50) is 32.6 µM [falling, single point].

Consider `O=C(CN1CCCCCC1)Nc1ccc(Cl)cc1F`, for which, under setting [1], the AC50 was 6.31 µM [falling, partial curve].

`Cc1csc(CNc2ncnc3ccc(-c4ccccc4Cl)cc23)c1`: the half-maximal activity concentration (AC50) under setting [1] is 18.4 µM [falling, single point].

As for `Cc1cccc(-n2ncc3c(=O)[nH]c(SCC(=O)Nc4cc(C)on4)nc32)c1`, under setting [1], the concentration at half-maximal activity (AC50) is 25.9 µM [rising, single point].

For the compound `COc1ccc(OCCC(=O)OCC(=O)NC2CCCCC2)cc1`, the AC50 under setting [1] is 5.8 µM [rising, single point].

Consider `O=C(NCCCO)c1ccc2nc(-c3ccco3)c(-c3ccco3)nc2c1`, for which, under setting [1], the AC50 is 35.5 µM [falling, single point].

In the case of `Cc1ccccc1/C(N)=N/OC(=O)c1cccs1`, the AC50 under setting [1] was 29.1 µM [falling, single point].

Take `C/C=C/C=C\C(=O)Nc1cccc(C2=NOC3(C2)C[C@@H](C(N)=O)N(C(=O)c2cc([N+](=O)[O-])cc([N+](=O)[O-])c2C)C3)c1` (stereo partly drawn): the AC50 under setting [1] is 1.58 µM [falling, full curve].

Take `O=C(N/N=C/c1c(O)n(-c2ccccc2Cl)c(=O)c2ccccc12)C1COc2ccccc2O1` (stereo not drawn): under setting [1], the AC50 was 14.6 µM [falling, partial curve, poor fit].

For the compound `Cc1cccc2sc(N(Cc3cccnc3)C(=O)c3cccs3)nc12`, the AC50 under setting [2] is 5.62 µM [rising, full curve, poor fit].

`CCn1c(SCC(=O)N/N=C/C=C/c2ccco2)nc2ccccc21`: the AC50 under setting [2] was 18.4 µM [falling, single point].

Regarding `COc1cc(-c2nc(-c3ccccc3)c(-c3cccs3)[nH]2)cc(OC)c1OC`, the AC50 under setting [1] is 16.4 µM [falling, single point].

On to `COC(=O)C1=C(C)N(c2cccc3ccccc23)C(=O)C1`, for which the AC50 under setting [1] is 0.461 µM [falling, full curve, poor fit].

Regarding `Cc1ccc(CNC(=O)COC(=O)C2CCC2)cc1`, under setting [1], the AC50 was 0.731 µM [rising, partial curve, poor fit].

Regarding `COc1ccc(NC(=O)CCC2CCCC2)cc1OC`, under setting [1], the AC50 is 5.8 µM [rising, full curve, poor fit].

With `COc1cc(/C=N/NC(=S)Nc2cccc(S(=O)(=O)N(C)C)c2)cc(OC)c1O`, the AC50 under setting [1] was 18.4 µM [falling, single point].
